From ChEMBL document CHEMBL3988442, “University of Dundee, Small-Polar-MMV Screening Library” (2021).

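Whole-cell assay for inhibitors of Mycobacterium tuberculosis growth, labelled Cornell in the record; the read-out is not stated. The concentration is filed as 10 mM, unlikely as a test dose, so the dose is not known. Higher means stronger inhibition (inferred from two other growth screens of the library). About 53,000 compounds were tested under these conditions; 1.7% (about 900) showed 50% or more at least once.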

Results are given as percent effect.
How 0% and 100% were set is not recorded. Most values in the screen are low, and negative values occur.
This is an unselected part of the compounds tested.

COC(=O)c1sccc1S(=O)(=O)N1CCC(Oc2cnccn2)CC1 gave 11.89%. Result for CCC1CN(C(=O)COc2ccc(C(=O)NC3CC3)cc2)CCO1 (centres unmarked) was 11.68%. With NC(=O)CN1CCCC(Cc2ccc(N3CCOCC3)nn2)C1 (centres unmarked) the screen gave -23.84%. COC[C@]1(O)CCN(c2cc(OC)ncn2)CC1(C)C read -3.458%.

For CCN(C(=O)COC)C(c1ccc(Cl)cc1)c1ccccn1 (centres unmarked) the result was -5.822%. CCCNC(=O)Nc1cccc2c1CCN(S(C)(=O)=O)C2 read -34.54%. With COc1cccc(CNc2ccc(F)c(Cl)c2)c1O the screen gave 58.04%. Result for O=C(c1ccoc1)N1CCn2nc(CN3CCSCC3)cc2C1 was -8.981%.

CNC(=O)CN(C(=O)c1cc(C(C)C)no1)c1cccc(F)c1 gave -6.684%. Result for [H][C@@]12C[C@@H](c3nc(C)no3)O[C@]1([H])CN(S(=O)(=O)c1cccc(C)c1)C2 was 15.23%. With Cc1ccccc1C1CCN(CCn2cc(-c3cccc(O)c3)nn2)C1 (centres unmarked) the screen gave -19.03%. CN1CCCn2c(nc(CNC(=O)c3nccn3C)cc2=O)C1.O=C(O)C(F)(F)F.O=C(O)C(F)(F)F gave 26.41%.

Result for COc1ccccc1OCCN(C)Cc1c(C2CC2)[nH]c2ncccc12 was 0.04717%. For COC1CCCN(C(=O)NCC(C)(C)SC)C1 (centres unmarked) the result was -0.2351%. With COc1cc(NC(=O)CCn2nc(-c3cccs3)oc2=O)cc(OC)c1 the screen gave 7.165%. Result for CC(C)OCCC1CCCCN1S(N)(=O)=O (centres unmarked) was -70.82%.

CCn1cnnc1CNS(=O)(=O)N1CCCC1c1ccc(C)o1 (centres unmarked) read -19.64%. Cc1c(C)c2c(c(C)c1O)CC[C@](C)(C(=O)O)O2 gave 10.14%. COC1CN(C(=O)Cc2cccs2)CCC(=O)N(C)c2ccccc21 (centres unmarked) read 11.18%. CCN(CC1CCOC1)C(=O)Nc1ccc(N2CCCC2)nc1 (centres unmarked) gave -18.48%.

CCCc1ncc(CN(CCOC)Cc2cccs2)cn1 read 25.79%. COC(=O)N1CC(C)=C(C)CN1C(=O)Nc1ccc(Cl)c(Cl)c1 read -7.802%. CC(C)n1cnc2ccc(NC(=O)CCCn3cccn3)cc2c1=O read -34.67%. With CCOc1ccc(OCC)c(NCc2cc(C)on2)c1 the screen gave 5.289%.

CCCNC(=O)c1ccc(S(=O)(=O)NCC2(COC)CCCC2)cc1 gave 18.49%. Result for COCCN(Cc1cccc(C#N)c1)Cc1nnsc1Cl was -22.44%. With O=C(NCCc1ccccn1)NC1CCN(c2ncccn2)CC1 the screen gave 19.41%. CC1(c2ccccc2)CCCN(Cc2nnc(-c3cccnc3)o2)C1 (centres unmarked) read 49.31%.

CC(C)NC(=O)C1CCN(c2nc3nc[nH]c(=O)c3s2)CC1 read 13.5%. Result for O=C(CC1CCCC1)N1CCN(c2ccc(-n3cncn3)nn2)CC1 was -22.71%. For CC(C)Cc1nnc(SCC(=O)O)n1-c1ccc(F)cc1F the result was -0.7885%. Result for O=S(=O)(Nc1ccc2c(c1)OCCO2)N1CCCCC1 was 22.34%.

CCSCc1cccc(NCc2cccnc2)c1 read 73.99%. Result for Cc1cccc(C(C(=O)NCC2(Cn3nc(C)cc3C)CC2)N(C)C)c1 (centres unmarked) was -26.41%. For O[C@H]1CCN(CC2CCOC2)[C@H]1Cc1ccncc1 (some centres unmarked) the result was 31.67%. With O=C(O)C(F)(F)F.O=C(O)C(F)(F)F.[H][C@@]12COC[C@]1([H])[C@H](OCc1ccccn1)CN2Cc1nccs1 the screen gave 1.669%.

With COCCNC(=O)Cn1cc(OCc2ccc(F)cc2)c(=O)cc1C the screen gave -40.38%. For Cc1cc(C)n(C(=O)Cn2nc(C)c(I)c2C)n1 the result was 7.603%. For Clc1cc(CN2CCCC2Cn2cncn2)c2ncccc2c1 (centres unmarked) the result was 18.58%. Cc1ccc(OCCN(C)C(=O)CCCC(N)=O)c(C)c1 read 10.41%.

For O=S(=O)(NCCCn1cncn1)c1ccc2c(c1)OCCCO2 the result was 0.095%. Cc1nc(CNC(=O)c2ccc3c(c2)nc(N2CCOCC2)n3C)cs1 read 9.133%. Result for Cc1nc2ccccc2nc1CN1CCn2nc(CCC(=O)O)cc2C1 was 24.69%. COc1ncccc1NC(=O)N(Cc1ccc(C)o1)C1CC1 read 27.28%.

Cc1nc(O)cc(CCNC(=O)C2CC(=O)N(CC(C)C)C2)n1 (centres unmarked) gave 1.55%. CCCn1cnc(S(=O)(=O)Nc2cccnc2-n2cccn2)c1 read -3.509%. Cl.O=C(Cn1c(-c2ccco2)cc2cccnc21)N1CCCC1 read 60.37%. O=C(O)C(F)(F)F.O=C(O)C(F)(F)F.[H][C@]12C[C@@H](CN(C)C)N(CC3CC3)[C@@]1([H])CCN(C(=O)c1cnoc1C)C2 gave 34.12%.

COc1cc(CCC(=O)N2CCC(c3cncc(C)n3)CC2)on1 read 4.317%. With O=C(O)C(F)(F)F.[H][C@]12CCC[C@@]1(COCc1ccncc1)CN(C(=O)C1=CCCC1)C2 the screen gave -7.755%. For CC(C)c1nccn1CCCNC(=O)c1ccc(N(C)C)nc1 the result was 8.246%. OCCN1CCN(CC(O)c2ccc(C(F)(F)F)cc2)CC1 (centres unmarked) read -26.61%.

For CN(C)c1ccc(CCCNC(=O)NCC(O)c2cccs2)cc1 (centres unmarked) the result was 16.9%. For Cn1c(CO)cnc1SC(C(N)=O)c1ccccc1 (centres unmarked) the result was -12.15%. CO[C@@H]1CCN(Cc2nccn2C)[C@H]1Cc1cccnc1.O=C(O)C(F)(F)F.O=C(O)C(F)(F)F gave -25.81%. With OC(CN(Cc1ccccc1)Cc1ccncc1)c1cccs1 (centres unmarked) the screen gave 4.252%.

CSCCC(CO)NC(=O)c1ccc2[nH]/c(=N\S(C)(=O)=O)sc2c1 (centres unmarked) read 32.65%.

Repeated from the top, 7 entries:

For COC(=O)c1sccc1S(=O)(=O)N1CCC(Oc2cnccn2)CC1 the result was 11.89%.
For CCC1CN(C(=O)COc2ccc(C(=O)NC3CC3)cc2)CCO1 (centres unmarked) the result was 11.68%.
For NC(=O)CN1CCCC(Cc2ccc(N3CCOCC3)nn2)C1 (centres unmarked) the result was -23.84%.
For COC[C@]1(O)CCN(c2cc(OC)ncn2)CC1(C)C the result was -3.458%.
For CCN(C(=O)COC)C(c1ccc(Cl)cc1)c1ccccn1 (centres unmarked) the result was -5.822%.
For CCCNC(=O)Nc1cccc2c1CCN(S(C)(=O)=O)C2 the result was -34.54%.
For COc1cccc(CNc2ccc(F)c(Cl)c2)c1O the result was 58.04%.